# According to publication doi:10.1101/2025.10.03.680249:
# Residue numbers refer to the chain shown, from its start. Numbers in names are those of the source. These are yes or no findings as the source states them, for the method shown. Binding can be weak; no strength is given. Tags and fused reporters may be left off the sequences shown. For some assays here: In cells and extracts the contact can be indirect.
# B1: NPF6.2/NRT1.4 (nitrate transporter), split-ubiquitin fusion (protein, UniProt Q9SZY4 1-577)
# chain: MESKGSWTVADAVDYKGRPADKSKTGGWITAALILGIEVVERLSTMGIAVNLVTYLMETMHLPSSTSANIVTDFMGTSFLLCLLGGFLADSFLGRFKTIGIFSTIQALGTGALAVATKLPELRPPTCHHGEACIPATAFQMTILYVSLYLIALGTGGLKSSISGFGSDQFDDKDPKEKAHMAFFFNRFFFFISMGTLLAVTVLVYMQDEVGRSWAYGICTVSMAIAIVIFLCGTKRYRYKKSQGSPVVQIFQVIAAAFRKRKMELPQSIVYLYEDNPEGIRIEHTDQFHLLDKAAIVAEGDFEQTLDGVAIPNPWKLSSVTKVEEVKMMVRLLPIWATTIIFWTTYAQMITFSVEQASTMRRNIGSFKIPAGSLTVFFVAAILITLAVYDRAIMPFWKKWKGKPGFSSLQRIAIGLVLSTAGMAAAALVEQKRLSVAKSSSQKTLPISVFLLVPQFFLVGAGEAFIYTGQLDFFITQSPKGMKTMSTGLFLTTLSLGFFVSSFLVSIVKRVTSTSTDVGWLADNINHGRLDYFYWLLVILSGINFVVYIICALWFKPTKGKDSVEKENGKGFSVEDC
# B2: YN:NPF6.2, BiFC fusion expressed in Xenopus oocytes (protein, UniProt Q9SZY4 1-577)
# chain: B1 chain
# B3: YN:NPF6.2^V210M, BiFC fusion expressed in Xenopus oocytes (protein, UniProt Q9SZY4 1-577)
# chain: B1 chain with V210M
# B4: NPF6.3/NRT1.1 (nitrate transceptor), split-ubiquitin fusion (protein, UniProt Q05085 1-590)
# chain: MSLPETKSDDILLDAWDFQGRPADRSKTGGWASAAMILCIEAVERLTTLGIGVNLVTYLTGTMHLGNATAANTVTNFLGTSFMLCLLGGFIADTFLGRYLTIAIFAAIQATGVSILTLSTIIPGLRPPRCNPTTSSHCEQASGIQLTVLYLALYLTALGTGGVKASVSGFGSDQFDETEPKERSKMTYFFNRFFFCINVGSLLAVTVLVYVQDDVGRKWGYGICAFAIVLALSVFLAGTNRYRFKKLIGSPMTQVAAVIVAAWRNRKLELPADPSYLYDVDDIIAAEGSMKGKQKLPHTEQFRSLDKAAIRDQEAGVTSNVFNKWTLSTLTDVEEVKQIVRMLPIWATCILFWTVHAQLTTLSVAQSETLDRSIGSFEIPPASMAVFYVGGLLLTTAVYDRVAIRLCKKLFNYPHGLRPLQRIGLGLFFGSMAMAVAALVELKRLRTAHAHGPTVKTLPLGFYLLIPQYLIVGIGEALIYTGQLDFFLRECPKGMKGMSTGLLLSTLALGFFFSSVLVTIVEKFTGKAHPWIADDLNKGRLYNFYWLVAVLVALNFLIFLVFSKWYVYKEKRLAEVGIELDDEPSIPMGH
# B5: NPF6.2, BiFC fusion expressed in Nicotiana benthamiana (protein, UniProt Q9SZY4 1-577)
# chain: B1 chain
# B6: NPF6.2 wild type, split-nanoluciferase fusion in yeast (protein, UniProt Q9SZY4 1-577)
# chain: B1 chain
# B7: NPF6.2^V210M, split-nanoluciferase fusion in yeast (protein, UniProt Q9SZY4 1-577)
# chain: B1 chain with V210M
# B8: NPF6.3/NRT1.1, split-nanoluciferase fusion in yeast (protein, UniProt Q05085 1-590)
# chain: B4 chain
# Tests used:
# [1] = target: HAK5 (high-affinity K+ uptake protein), split-ubiquitin fusion (Arabidopsis); experiment: two-hybrid
# [2] = target: YC:HAK5, BiFC fusion expressed in Xenopus oocytes (Arabidopsis); experiment: split reporter
# [3] = target: HAK5, BiFC fusion expressed in Nicotiana benthamiana (Arabidopsis); experiment: split reporter
# [4] = target: HAK5, split-nanoluciferase fusion in yeast (Arabidopsis); experiment: split reporter
binder,measurement,setting,value
B1,binding,[1],binds
B2,binding,[2],binds
B3,binding,[2],binds
B4,binding,[1],binds
B5,binding,[3],binds
B6,binding,[4],binds
B7,binding,[4],binds
B8,binding,[4],binds
